No constants are given. Whether binding was seen depends on the method and setting. In cells and extracts the contact can be indirect. Binding can be weak; no strength is given.
Target: endogenous zebrafish Ryk (zebrafish (endogenous in 18 hpf embryos))
Experiment: co-IP

binding: binds
B1: endogenous zebrafish Pcdh19 (protein, UniProt F8W3X3 25-1088)
chain: VFNLKYTVEEELRAGTKIANVTADAKVAGFALGNRQPYLRVISNSEPRWVNLSPAGLLITKQKIDRDAVCRQTPKCFISLEVMSNSMEICVIKIEIIDVNDNAPRFPTNHIDIEISENAAPGTRFPLEGASDPDSGSNGIQTYTITPNDIFGLEIKTRGDGSKIAELVVEKTLDRETQSRYTFELTAEDGGDPPKSGTVQLNIKVIDSNDNNPVFDEPVYTVNVLENSPINTLVIDLNATDPDEGTNGEVVYSFINFVSNLTKQMFKIDPKTGVITVNGVLDHEELHIHEIDVQAKDLGPNSIPAHCKVIVNVIDINDNAPEIKLLSENSEMVEVSENAPLGYVIALVRVSDNDSGANGKVQCRLQGNVPFRLNEFESFSTLLVDGRLDREQRDMYNLTILAEDSGYPPLRSSKSFAVKVTDENDNPPYFTKPHYQAMVLENNVPGAFLLAVSARDPDLGMNGTVSYEIIKSEVRGMSVESYVTVNSNGEIYGVRAFNHEDTRTFEFKVSAKDGGDPPLTSNATVRIVVLDVNDNTPVMTTPPLVNGTAEVSIPKNAGVGYLVTQIKADDYDEGENGRLTYSISEGDMAYFEIDQINGEVRTTKTFGENAKPSYQITVVAHDHGQTSLSASAYIVIYLSPDLNAQEQIGPVNLSLIFIIALGSIAVILFVTMIFVAVKCKRDNKEIRTYNCRVAEYSYGNQKKSSKKKKLSKNDIRLVPRDVEETDKMNVVSCSSLTSSLNYFDYHQQTLPLGCRRSESTFLNVENQNSRNAAPNHGYHHTFTGQGPQQPDLIINGMPLPETENYSIDSSYVNSRAHLIKSTSTFKDMEGNSLKDSGHEESDQTDSEHDVQRGHYADTAVNDVLNMTVPSNNSQIPDQDQSEGFHCQDECRILGHSDRCWMPRVPIPARAKSPEHGRNVIALSIEATTVDVPHYEDCGTTKRTFATFGKDGPDEDRAEQRGRRQTAEPAVCSPKTNGAVREAGNGREAVSPITSPVHLKSPQSKASSTYNTLKCRDAERIANHSLLRQPEGKDSEPAMREINTLLQDGRDKESPGSKRLKDIVL

Source: publication doi:10.1101/2020.09.14.297283
